Measured values reported in PMC7819943, “Rice protein-binding microarrays: a tool to detect cis-acting elements near promoter regions in rice”.
Some of the results follow.

Chains of the proteins cited; added tags and fusions are not shown.
UniProt Q0JBA9, entry or part of it: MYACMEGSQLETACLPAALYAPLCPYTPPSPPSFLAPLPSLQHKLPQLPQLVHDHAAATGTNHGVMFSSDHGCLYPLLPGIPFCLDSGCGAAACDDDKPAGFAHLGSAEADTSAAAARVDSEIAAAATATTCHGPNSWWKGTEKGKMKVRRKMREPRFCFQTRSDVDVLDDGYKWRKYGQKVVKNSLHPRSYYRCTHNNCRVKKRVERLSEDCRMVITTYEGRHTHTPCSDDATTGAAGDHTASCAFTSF

Molecular target: OsWRKY34 (Oryza sativa, UniProt Q0JBA9 1-250)
Experiment: protein-binding microarray (RPBM); PBS, 2% BSA, 51.3 ng/ul salmon testes DNA, 50 uM zinc acetate, 200 nM TF, 25 C, 1 h; high values mean tight binding
Conditions: protein: recombinant; tags: N-terminal polyhistidine and DsRed monomer fusion (pET32a); label: CyDye5-dUTP incorporated in the synthesized complementary strand; 3' TTTTT single-stranded linker to array surface; dsDNA, one strand shown
In short: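 Binding signal is reported as fluorescence intensity per feature (arbitrary units) from an Axon 4000B scanner. Incubation used 200 nM of each Ni–NTA-purified, N-terminally polyhistidine- and DsRed-fused transcription factor from E. coli BL21-CodonPlus on a double-stranded custom Agilent array for 1 h at 25 °C, with 50 µM zinc acetate in the buffer, followed by washing.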

| Sequence | binding signal |
| --- | --- |
| TTCAGTTTTTGCTTGCAACGTTTGACCACTCGTCTTATTCCGGAGTCACCTAGTGCAG | 15600 fluorescence intensity (a.u.) |
| TATCTGTGTCTGTGTGTGCACTGTGGCACGCGTGCACGCACGGAGTCACCTAGTGCAG | 8090 fluorescence intensity (a.u.) |
| ATTTTCTTGGGGTCGTTTATAAATTAAATTTTAGGCTTGGCGGAGTCACCTAGTGCAG | 8460 fluorescence intensity (a.u.) |
| CTCACTTCACTCCACTCCACTCCACCGTTTCCCCGTTTCCCGGAGTCACCTAGTGCAG | 9440 fluorescence intensity (a.u.) |
| TCCTACGTCTCCGCCCATGTCCTGCTCTACGGGCTGACGACGGAGTCACCTAGTGCAG | 8240 fluorescence intensity (a.u.) |
| TTTCTCACTGTTATATTGTCTAATATCATCTTTCTCTTTTCGGAGTCACCTAGTGCAG | 9880 fluorescence intensity (a.u.) |
| TGTTTTTTCCTTTTTTTTTCTTTTCTTTTTCTCTCTTCCCCGGAGTCACCTAGTGCAG | 8200 fluorescence intensity (a.u.) |
| ATCCCACACATAGCAACCACTATCTATTTATTTTACTACCCGGAGTCACCTAGTGCAG | 9040 fluorescence intensity (a.u.) |
| TATTATCCAAAGTACTTTAAACGCAACTTTTCATTTTTTACGGAGTCACCTAGTGCAG | 8790 fluorescence intensity (a.u.) |
| CTTGTTTTCAATGTTTTCATAGTTTGATCCGCACTGTATTCGGAGTCACCTAGTGCAG | 11000 fluorescence intensity (a.u.) |
| TGAAATTGGGTATCCTAGCTGCATCAAACACTCTCATCTACGGAGTCACCTAGTGCAG | 10200 fluorescence intensity (a.u.) |
| GTTACATTTTTAGTCCTCATCCCTTGTTTGGTTTCACATCCGGAGTCACCTAGTGCAG | 11400 fluorescence intensity (a.u.) |
| GCATTGAGGTCGACATGGACATACCTTTCCTTTGGGTTGCCGGAGTCACCTAGTGCAG | 8490 fluorescence intensity (a.u.) |
| CACGCCAACCTCGCATCTCTCTCTCACCTCTGCTCCAATCCGGAGTCACCTAGTGCAG | 8900 fluorescence intensity (a.u.) |
| ACCTCTCTCATTCGTTTTCCACGTACACGCTTTTTAAATTCGGAGTCACCTAGTGCAG | 10200 fluorescence intensity (a.u.) |
| ATGATGGCTTTTCCAGCAGCTGCTCCAGTTCCTGTCGGGACGGAGTCACCTAGTGCAG | 9240 fluorescence intensity (a.u.) |
| GGCGTTGCTGCTGCTAGCTGTTGTTGTTGGGCATCGTTCTCGGAGTCACCTAGTGCAG | 10500 fluorescence intensity (a.u.) |
| CCCATCATCGCGCGCGTTTTCGCGTACAATTTGGTACTCCCGGAGTCACCTAGTGCAG | 10200 fluorescence intensity (a.u.) |
| GTCATTTCGGCCTATATCGGCCTCTATGGTTTCCAAATTCCGGAGTCACCTAGTGCAG | 8540 fluorescence intensity (a.u.) |
| GTGTTTCCCATGGTTTGCACCAGTCTCCTCTGATGCAGTCCGGAGTCACCTAGTGCAG | 26400 fluorescence intensity (a.u.) |
| ACTGTTGGAGTGGGAGTGGGGAATTCTAGGGTTTTGCAATCGGAGTCACCTAGTGCAG | 12300 fluorescence intensity (a.u.) |

| Sequence | binding signal |
| --- | --- |
| ACTAGGCTATAGACCCGTTCGTTATCCATTCTTAGTTTCACGGAGTCACCTAGTGCAG | 9510 fluorescence intensity (a.u.) |
| AGGCTTTCGCTATGACTTGTCCCCTGGAAAGGTCTATTTACGGAGTCACCTAGTGCAG | 8110 fluorescence intensity (a.u.) |
| ATGGGCCTAACAGGTAGACACGTTCGCTCATCTCATTCGTCGGAGTCACCTAGTGCAG | 8210 fluorescence intensity (a.u.) |
| CGTTGATCATTTATTGACATTATAGTTACTCTGCAGTGCACGGAGTCACCTAGTGCAG | 8580 fluorescence intensity (a.u.) |
| ACACCGGCCGCCGAGCTCGCCTCCTCTCTTGTCGCCCACACGGAGTCACCTAGTGCAG | 10100 fluorescence intensity (a.u.) |
| ATACTACTCCTTTGACTCCTCCGCTTTAAAATTTCCCTCTCGGAGTCACCTAGTGCAG | 12200 fluorescence intensity (a.u.) |
| ATTCAGGATGTTATTTCTCTCATATTTGAGAAGGCTGTTTCGGAGTCACCTAGTGCAG | 9190 fluorescence intensity (a.u.) |
| GTCGTCCTCCGCGACCGATCCCGTTGCAGATCTCGCGGCCCGGAGTCACCTAGTGCAG | 8920 fluorescence intensity (a.u.) |
| AGTACACCACATATTAACTCATGGATATCAATAATTGCACCGGAGTCACCTAGTGCAG | 8450 fluorescence intensity (a.u.) |
| TTATATGATGTTGTTGACTTTTTGACAAATGTTTAATCATCGGAGTCACCTAGTGCAG | 8810 fluorescence intensity (a.u.) |
| TTGATCATCACTTTTTTTTTCAACGAAAACTTGTTCGTCGCGGAGTCACCTAGTGCAG | 9180 fluorescence intensity (a.u.) |
| ATATTGTTCTCCTTTCATCTCCCTTTCTATCATTAGTGATCGGAGTCACCTAGTGCAG | 8580 fluorescence intensity (a.u.) |
| CTCTCCCGCGCTTTCTCTTCCCGCCATCTCCCTATAAATGCGGAGTCACCTAGTGCAG | 8540 fluorescence intensity (a.u.) |
| CCTCCGTTTCAGGTTACAGGACTTTCTAGCATTGCCCACACGGAGTCACCTAGTGCAG | 8080 fluorescence intensity (a.u.) |
| AAGGGTGTGTTTAGTTGATTGGCTAATTTTTTTTTAAGTACGGAGTCACCTAGTGCAG | 8680 fluorescence intensity (a.u.) |
| GCCATCTATTCTTCACACCTCATTCAATCCTAGCCATTCACGGAGTCACCTAGTGCAG | 13900 fluorescence intensity (a.u.) |
| TAAAGTAGATTAATTCGCCCTATAGCTAGCTTTATTATCACGGAGTCACCTAGTGCAG | 8670 fluorescence intensity (a.u.) |
| TACTTGTCCAGTTCTTACACTCGTCTCACTTTACTACTCACGGAGTCACCTAGTGCAG | 10100 fluorescence intensity (a.u.) |
| CATGGTAATGTTTACTCAGTATTTGGGTCTTGTCCTTTCTCGGAGTCACCTAGTGCAG | 10500 fluorescence intensity (a.u.) |
| CGTGCTCCGACAATCCCGCCCGTCCATCGCCGCGGCCCCGCGGAGTCACCTAGTGCAG | 9290 fluorescence intensity (a.u.) |
| TCGATAATGACGGGCAACGTAAAAAGTCAACGCACACTCCCGGAGTCACCTAGTGCAG | 14600 fluorescence intensity (a.u.) |

An excerpt of these results, tab-delimited:
Sequence	binding signal
ATGATGGCTTTTCCAGCAGCTGCTCCAGTTCCTGTCGGGACGGAGTCACCTAGTGCAG	9240 fluorescence intensity (a.u.)
GTGTTTCCCATGGTTTGCACCAGTCTCCTCTGATGCAGTCCGGAGTCACCTAGTGCAG	26400 fluorescence intensity (a.u.)
